At least one structure is not confirmed: it was looked up by name or label, or the drawing left a doubt.
Key:
[1] = ADMA fluorescent probe test: rate of total Type 1 and 2 ROS production by an illuminated photosensitizer (k-value); format: physicochemical
From the text: (§1) Discussed below are evaluations methods and system for evaluating a PS for Type ½ Production. The above describes the parameters that would best define an ideal practical PS. […] This can be semi-quantitatively analyzed using fluorescent molecular probes that scavenge Type ½ ROS. Two specific probes ideal for this are 9,10-anthracene bis(methylene) dimalonic acid (ADMA) and singlet oxygen sensor green (SOSG).
(§2) Anthracene and its derivatives are sensitive to both Type 1 and Type 2 ROS, while SOSG is specifically for Type 2 ROS studies.^9 By tracking the fluorescent changes of these probes over time, the Type ½ ROS and rates of production by a set of PSs can be directly compared in a semi-quantitative manner. In the work to follow, AMDA is the anthracene derivative utilized.
ADMA decays according to first order rate law kinetics. As such, the rate of total Type 1 and 2 ROS may be studied by tracking its fluorescence loss over time as a natural log, yielding a linear plot whose slope is the rate constant of Type 1 and 2 ROS production (referred to as the k-value). The greater the rate constant, the more Type 1 and Type 2 ROS being produced, and thus PSs compared under identical conditions (equivalent [PS], [02], flux, temp) can be semi-quantitatively compared.
Combining the findings of the SOSG and ADMA tests, semi-quantitative comparisons and estimates about the performance of PSs in a given set may be extrapolated, when performed under identical conditions (equivalent [PS], [O2], flux, temp). […]
(§3) 3. Pulse the molecular probe for initial fluorescence
(§4) • a. Simple fluorescence scan • b. […]
(§5) Using a PS as an assigned origin (standard by which all other PSs are compared to), any PS may be charted by comparing the k and S-values (k/kstd=k′, S/Sstd=S′, k″=1−k′, S″=S′−1) at clinically relevant concentrations (1-2 uM). By plotting the k″ and S″ values as x,y coordinates (respectively), the semi-quantitative comparison of PSs against each other may be directly visualized; the origin PS will have a position of 0,0. […]

[2] = SOSG (singlet oxygen sensor green) fluorescent probe test: Type 2 ROS production by an illuminated photosensitizer (S-value); format: physicochemical
From the text: as §1, §2
SOSG functions in a manner opposite to that of the anthracene probe; instead of a fluorescence loss, SOSG experiences a fluorescence enhancement when interacting with Type 2 ROS; Type 1 ROS has no effect. […] Therefore, the steeper the slope (S-value), the more Type 2 ROS being produced.
Combining the findings of the SOSG and ADMA tests, semi-quantitative comparisons and estimates about the performance of PSs in a given set may be extrapolated, when performed under identical conditions (equivalent [PS], [O2], flux, temp). This will aid in choosing a PS that maximizes PDT efficacy by showing it has a minimum of Type 1 ROS and maximum of Type 2 ROS production, while also producing at a sufficient rate to efficiently ablate tissue.
The exact method of study is as follows, using a factory default Horiba Duetta:
as §3, §4, §5

[3] = free PS illuminated at the wavelength of its maxima, [PS] E-6 (clinically relevant 1-2 uM)
[4] = relative to methylene blue (MB) as standard

## Oc1cccc(-c2c3nc(c(-c4cccc(O)c4)c4ccc([nH]4)c(-c4cccc(O)c4)c4nc(c(-c5cccc(O)c5)c5ccc2[nH]5)CC4)C=C3)c1 [Temoporfin]
[1]; [3]
  k (rate constant of Type 1 and 2 ROS production, slope of Ln(I/I0) of ADMA vs time): 0.10 E-4 s^−1
[1]; [4]
  k′ (k/kstd): 0.02
[1]; x coordinate of PS grid, MB = origin
  k″ (1−k′): 0.98
[2]; [3]
  S (slope of SOSG I/I0 vs time, Type 2 ROS production): 0.08 E−2 s^−1
[2]; [4]
  S′ (S/Sstd): 0.17
[2]; y coordinate of PS grid, MB = origin
  S″ (S′−1): −0.83

From patent US12005125B2, “Nanoparticles for use in photodynamic therapies and methods of making, evaluating and using the same” (Mi2 Holdings LLC, priority 2020, dated 2024)
